Data reported in patent US20230203170A1 (DRAGONBOAT BIOPHARMACEUTICAL SHANGHAI, published 2023).
Results are given in words; binding and its absence hold for the method and conditions named. Some entries that bind do so weakly or less than the wild type.

The chains behind the UniProt entries cited, without tags or fusion partners. Where a name states a change or a piece, a line headed by the entry shows the natural chain unless it says otherwise. Residues count along the entry.
UniProt P07333: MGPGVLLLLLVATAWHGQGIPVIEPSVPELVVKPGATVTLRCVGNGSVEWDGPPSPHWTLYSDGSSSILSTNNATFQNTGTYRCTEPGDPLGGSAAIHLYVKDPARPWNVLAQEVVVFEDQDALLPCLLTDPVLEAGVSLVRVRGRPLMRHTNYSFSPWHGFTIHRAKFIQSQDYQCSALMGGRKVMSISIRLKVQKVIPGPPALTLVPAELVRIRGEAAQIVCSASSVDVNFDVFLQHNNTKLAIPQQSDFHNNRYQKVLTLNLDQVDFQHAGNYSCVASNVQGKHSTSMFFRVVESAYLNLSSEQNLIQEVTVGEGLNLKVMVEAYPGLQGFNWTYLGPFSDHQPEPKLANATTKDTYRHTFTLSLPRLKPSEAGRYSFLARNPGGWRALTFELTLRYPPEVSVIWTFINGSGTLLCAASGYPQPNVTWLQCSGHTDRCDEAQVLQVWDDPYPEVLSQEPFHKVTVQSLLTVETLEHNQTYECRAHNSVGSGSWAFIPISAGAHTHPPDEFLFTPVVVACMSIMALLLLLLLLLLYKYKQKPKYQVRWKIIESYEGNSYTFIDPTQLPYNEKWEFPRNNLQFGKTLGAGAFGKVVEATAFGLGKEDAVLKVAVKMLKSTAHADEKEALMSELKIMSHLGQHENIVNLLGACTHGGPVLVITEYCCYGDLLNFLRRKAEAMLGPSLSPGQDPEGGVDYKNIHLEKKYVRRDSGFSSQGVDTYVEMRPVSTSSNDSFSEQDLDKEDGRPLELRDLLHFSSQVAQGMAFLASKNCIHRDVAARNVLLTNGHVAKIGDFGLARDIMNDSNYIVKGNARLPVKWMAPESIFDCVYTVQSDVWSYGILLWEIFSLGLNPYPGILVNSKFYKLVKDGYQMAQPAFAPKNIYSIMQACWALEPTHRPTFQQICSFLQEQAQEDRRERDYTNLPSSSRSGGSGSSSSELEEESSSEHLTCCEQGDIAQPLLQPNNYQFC
full-length human CSF-1R expressed on cells: residues 20-972 of P07333
human CSF1R-His (Acrobiosystem, CSR-H5228): residues 20-512 of P07333

Experiments:
[1] = target: full-length human CSF-1R expressed on cells (human) (UniProt P07333); assay: flow cytometry on transfected HEK293F cells, IgG at 100 nM
[2] = target: human CSF1R-His (Acrobiosystem, CSR-H5228) (human) (UniProt P07333); assay: ForteBio; TAC2205 binds CSF1R-His held by immobilised TAC2188
[3] = target: full-length human CSF-1R expressed on cells (human) (UniProt P07333); assay: flow cytometry on HEK293F cells transiently expressing full-length human CSF-1R (IRES-EGFP vector), IgG at 100 nM, Alexa Fluor 647 anti-human Fc detection [Conti.]

Measured: binding

B1: TAC2205 (antibody, human IgG4, V domains shown)
VH: QVQLVQSGAEVKKPGSSVKVSCKASGYTFTDNYMIWVRQAPGQGLEWMGDINPYNGGTTFNQKFKGRVTITADKSTSTAYMELSSLRSEDTAVYYCARESPYFSNLYVMDYWGQGTLVTVSS
VL: EIVLTQSPATLSLSPGERATLSCKASQSVDYDGDNYMNWYQQKPGQAPRLLIYAASNLESGIPARFSGSGSGTDFTLTISSLEPEDFAVYYCHLSNEDLSTFGGGTKVEIK
binds: [1] | [2] | [3]
